This passage reports binding results from article PMC6176987, “Correction of cognitive deficits in mouse models of Down syndrome by a pharmacological inhibitor of DYRK1A” (Disease Models & Mechanisms, 2018).

These are yes or no findings as the source states them, for the method shown. In cells and extracts the contact can be indirect. Some entries that bind do so weakly or less than the wild type.

Assay [1] deals with dual specificity tyrosine-phosphorylation-regulated kinase 1A (mouse (endogenous in wt mouse brain)) (UniProt Q61214). Briefly: co-IP; endogenous proteins; RIPA lysate of fresh half brains of 3-month-old wt male mice; 1 ml extract with 2 µg antibody (anti-DYRK1A or anti-SYN1) at 4°C for 1 h, protein G agarose beads 30 min, washed three times with bead buffer; western blot. A general note: A western blot detects proteins with antibodies after separation by electrophoresis.

Assay [2] has as its target synapsin 1 (mouse (endogenous in wt mouse brain)) (UniProt O88935). Described as above.

On to “Calmodulin-dependent kinase 2A (from UniProt P11798 1-478) (enzyme)”, for which the binding result in assay [1] is reported as “binds”.

For the substance “dual specificity tyrosine-phosphorylation-regulated kinase 1A (from UniProt Q61214 1-763) (enzyme)”, in assay [2], the binding result is “binds”. As to synapsin 1 (from UniProt O88935 1-706), the binding entry in assay [1] is “binds”.
